# “And” between values parts separate entries of the source, which are not always exact repeats. Equal values may be shown once. Where a name gives a salt, the structure may show the parent alone. ± gives the standard deviation of the averaged measurements. The list shows a part of the results. Baselines shift from plate to plate; read single values as rough.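 Assay uses culture-activated primary human stellate myofibroblasts; lipid droplet recovery indicates inactivation. Measured: proportion of Hoechst-counted cells over a plate-specific Bodipy cutoff, duplicate wells, DMSO and nortriptyline as per-plate negative and positive controls. A hit scores, control-normalized, above the plate's top-tenth-percentile nortriptyline wells or ranks among its three best wells. Final well concentrations not reported.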
# Test system: primary human hepatic stellate cells (donor 1)
# Experiment: percent Bodipy-positive cells; higher = more lipid droplet accumulation
# Settings: 48 h
# Procedure: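 Primary lipid accumulation screen in primary human hepatic stellate cell myofibroblasts (donor 1, passage 8) in 384-well plates. 100 nL of library compound was pin-transferred into 30 µL medium in duplicate, and cells were treated for 48 h. The 'Scaled' score combines distance from plate baseline, toxicity and reproducibility penalties, and is normalised to nortriptyline (positive) and DMSO (negative) controls on each plate. A hit is defined as scaled >0.85 or among the top 3 wells per plate.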
# [1] = library stock concentration: 10 mM
# [2] = library stock concentration: 3.33 mM
# [3] = library stock concentration: 80 uM
# [4] = library stock concentration: 400 uM
# [5] = library stock concentration: 1 mM
# [6] = library stock concentration: 2 mM
compound,measurement,setting,value
CCOc1ccc2ccccc2c1C(=O)N[C@@H]1C(=O)N2[C@@H]1SC(C)(C)[C@@H]2C(=O)O,percent Bodipy-positive cells,[1],30.4 ± 0.61%
CCOc1ccc2ccccc2c1C(=O)N[C@@H]1C(=O)N2[C@@H]1SC(C)(C)[C@@H]2C(=O)O [Nafcillin sodium],percent Bodipy-positive cells,[1],9.08 ± 0.96%
CCOc1ccc2ccccc2c1C(=O)N[C@@H]1C(=O)N2[C@@H]1SC(C)(C)[C@@H]2C(=O)O [Nafcillin sodium salt monohydrate],percent Bodipy-positive cells,,10.2 ± 1.2%
CCOc1ccc2ccccc2c1C(=O)N[C@@H]1C(=O)N2[C@@H]1SC(C)(C)[C@@H]2C(=O)O [Nafcillin Sodium],percent Bodipy-positive cells,[2],7.91 ± 3.7%
same,percent Bodipy-positive cells,[1],28.1 ± 25%
C[S+]([O-])c1ccc(-c2nc(-c3ccc(F)cc3)c(-c3ccncc3)[nH]2)cc1 (stereo not drawn),percent Bodipy-positive cells,[3],15.4 ± 0.57%
same,percent Bodipy-positive cells,[4],19.2% and 32.2%
same,percent Bodipy-positive cells,[5],15 ± 0.4%
same,percent Bodipy-positive cells,[6],16% and 26.3%
same,percent Bodipy-positive cells,[2],11.1% and 12.5%
same,percent Bodipy-positive cells,library stock concentration: 13.2 mM,20.4 ± 7.4%
Cc1ccc(NC2=CC(=O)c3sc(C)nc3C2=O)cc1 [Cdk4 Inhibitor III],percent Bodipy-positive cells,[2],94.8 ± 1.2%
CS(=O)(=O)c1ccc(-c2cnc(N)c(C(=O)Nc3ccccc3)n2)cc1,percent Bodipy-positive cells,[1],91.7 ± 3.8%
COc1cc2c(Oc3ccc(NC(=O)C4(C(=O)Nc5ccc(F)cc5)CC4)cc3F)ccnc2cc1OCCCN1CCOCC1,percent Bodipy-positive cells,[3],59.2 ± 5.8%
same,percent Bodipy-positive cells,[4],59 ± 6.7%
same,percent Bodipy-positive cells,[6],75.9 ± 0.23%
same,percent Bodipy-positive cells,[1],99.3% and 99.5%
COc1cc(N2CCC(N(C)C)CC2)ccc1Nc1ncc(Cl)c(Nc2ccccc2P(C)(C)=O)n1,percent Bodipy-positive cells,[3],7.34 ± 0.87%
same,percent Bodipy-positive cells,[4],15.4 ± 3%
same,percent Bodipy-positive cells,[6],31.4 ± 11%
same,percent Bodipy-positive cells,[2],74.8 ± 14%
OCc1cccnc1 [Nicotinyl alcohol tartrate],percent Bodipy-positive cells,library stock concentration: 7.7 mM,18 ± 1%
same,percent Bodipy-positive cells,[1],29.2 ± 2.2%
OCc1cccnc1,percent Bodipy-positive cells,[1],10.1 ± 3.5%
Nc1ccccc1S(N)(=O)=O [2-Aminobenzenesulfonamide],percent Bodipy-positive cells,,7.97 ± 1.3%
COc1ccccc1Oc1c(NS(=O)(=O)c2ccc(C(C)(C)C)cc2)nc(-c2ncccn2)nc1OCCO [Bosentan],percent Bodipy-positive cells,[2],10.2 ± 0.73%
same,percent Bodipy-positive cells,library stock concentration: 3.6 mM,6.91 ± 2.4%
same,percent Bodipy-positive cells,[1],31.7 ± 11%
COc1ccccc1Oc1c(NS(=O)(=O)c2ccc(C(C)(C)C)cc2)nc(-c2ncccn2)nc1OCCO [Bosentan Hydrate],percent Bodipy-positive cells,[2],6.66 ± 0.65%
same,percent Bodipy-positive cells,[1],13.9 ± 8.6%
CCCCCCCCCCCCCCC(=O)N[C@H]1CCOC1=O [N-pentadecanoyl-L-Homoserine lactone],percent Bodipy-positive cells,[5],14.1 ± 3.9%
CC1=C(/C=C/C(C)=C/C=C/C(C)=C/C=C/C=C(C)/C=C/C=C(C)/C=C/C2=C(C)C(=O)CCC2(C)C)C(C)(C)CCC1=O [Canthaxanthin],percent Bodipy-positive cells,library stock concentration: 3.5 mM,82.5 ± 7%
CN(C)CCC=C1c2ccccc2COc2ccccc21 [Doxepin hydrochloride],percent Bodipy-positive cells,,61.2 ± 3.1%
CN(C)CCC=C1c2ccccc2COc2ccccc21 [Doxepin],percent Bodipy-positive cells,[1],65.9 ± 5.6%
CC(C)[N+](C)(CCOC(=O)C1c2ccccc2Oc2ccccc21)C(C)C [Pro-Banthine],percent Bodipy-positive cells,[1],38 ± 1.1%
CC(C)[N+](C)(CCOC(=O)C1c2ccccc2Oc2ccccc21)C(C)C [Propantheline bromide],percent Bodipy-positive cells,,12.5 ± 1.6%
same,percent Bodipy-positive cells,library stock concentration: 4.5 mM,12.65 ± 0.12%
same,percent Bodipy-positive cells,[1],14.3% and 20.6%

# As a working copy, part of the list above.
compound,measurement,setting,value
OCc1cccnc1,percent Bodipy-positive cells,[1],10.1 ± 3.5%
Nc1ccccc1S(N)(=O)=O [2-Aminobenzenesulfonamide],percent Bodipy-positive cells,,7.97 ± 1.3%

# Reference: the supplement of paper PMC9135407
